± gives the standard deviation. This is a selection; strong and weak results do not stand in their true shares. The uncertainty is large for many entries. This is one part of the list.
Key:
[1] = tested on: MILI (PIWIL2) piRISC loaded with L1MC piRNA (26 nt); assay: pre-steady-state target cleavage rate (min^-1); higher = faster piRNA-guided slicing of the target; details: guide: L1MC piRNA 5'p-UAACUAAAUACUAUGCAAGCUGUAGG
How it was run: (§1)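 Active affinity-purified piRISC (1 nM) loaded with one synthetic guide was mixed with a transcribed, DNA-blocked target RNA library (0.1 nM), with or without 500 nM GTSF1 partner protein, in HEPES–potassium acetate buffer at 33 °C for 0–8 or 0–960 min. Uncleaved targets were sequenced, normalised to depth and to weakly complementary targets, and pooled across three trials, with k3 capped at 0.0001 min^-1. The pre-steady-state cleavage rate was determined with a burst-and-steady-state fit.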

[2] = tested on: MIWI (PIWIL1) piRISC loaded with L1MC piRNA (30 nt); assay: as above; details: guide: L1MC piRNA 5'p-UAACUAAAUACUAUGCAAGCUGUAGGUCCU
How it was run: as §1

[3] = tested on: EfPiwi piRISC loaded with L1MC piRNA (26 nt); assay: pre-steady-state target cleavage rate (min^-1); guide: L1MC piRNA 5'p-UAACUAAAUACUAUGCAAGCUGUAGG; MIWI and MILI are mouse PIWI proteins and EfPiwi is from a freshwater sponge; tags in brackets are library labels; higher = faster piRNA-guided slicing of the target; details: auxiliary factor: 500 nM Ephydatia muelleri Gtsf1
How it was run: as §1

[4] = auxiliary factor: 500 nM mouse GTSF1
[5] = auxiliary factor: none (no GTSF1)

Sequence | pre-steady-state target cleavage rate [1, 4] | pre-steady-state target cleavage rate [1, 5] | pre-steady-state target cleavage rate [2, 4] | pre-steady-state target cleavage rate [2, 5] | pre-steady-state target cleavage rate [3]
UCCUGGAUCAGCUUGCAUCAGUAUUUAGUUA | 0.0028 ± 0.0049 | 0.00111 ± 0.0058 | 0.00223 ± 0.0047 | 0.00104 ± 0.0063 | 0.000454 ± 0.0073
UCCUGGAUCAGCUUGCAUUAGUAUUUAGUUA | 0.00236 ± 0.0054 | 0.00151 ± 0.0043 | 0.00214 ± 0.006 | 0.00204 ± 0.0042 | 0.000328 ± 0.017
UCCUGGAUGUCCUUGCAUAGAUUUUAGUAA | 0.00326 ± 0.0051 | 0.000971 ± 0.0055 | 0.00154 ± 0.0078 | 0.000588 ± 0.011 | 0.00183 ± 0.0047
UCCUGGAUGUCGAUGCAAAGUAUUUUGUUA | 0.00139 ± 0.0088 | 0.000415 ± 0.013 | 0.000629 ± 0.016 | 0.000115 ± 0.025 | < 0.0001
UCCUGGAUGUCGUUGCAUAGUAUUUACUUA | 0.00161 ± 0.0077 | 0.000647 ± 0.011 | 0.00369 ± 0.0045 | 0.00155 ± 0.0054 | 0.000297 ± 0.012
UCCUGGAUGAGGUUGCAUAGUAUUUACUUA | 0.000756 ± 0.011 | 0.000712 ± 0.0098 | 0.000753 ± 0.013 | 0.000695 ± 0.0082 | 0.000314 ± 0.014
UCCUGGAUGAGCUUGCAUAGUUAAUACAAA | 0.000903 ± 0.0091 | 0.00107 ± 0.0062 | 0.000721 ± 0.011 | 0.000765 ± 0.0081 | 0.00036 ± 0.011
UCCUGGAUGUCGAAGCAUAGUAUUUAGGUA | 0.00926 ± 0.0047 | 0.00144 ± 0.0035 | 0.00102 ± 0.01 | 0.00176 ± 0.0043 | 0.000868 ± 0.007
UCCUCCUACAGCUUGCAUACUAUUUAGAUA | 0.0353 ± 0.01 | 0.000949 ± 0.0042 | 0.0831 ± 0.015 | 0.0075 ± 0.0022 | 0.00315 ± 0.0027
UCCUGGAUCAGCUUCCAUAGUAUUUACAAA | 0.00232 ± 0.006 | 0.000348 ± 0.013 | 0.00432 ± 0.0056 | 0.000736 ± 0.0097 | 0.00192 ± 0.0032
UCCUGGAUGUGCUUCGUUAGUAUUUAGUAA | 0.00129 ± 0.0081 | 0.000865 ± 0.0074 | 0.000508 ± 0.022 | 0.000666 ± 0.012 | 0.000293 ± 0.012
UCCUGCGUACAGCUUGCAUAGUAUUUAGUUA | 0.314 ± 0.021 | 0.0109 ± 0.0033 | 1.33 ± 0.062 | 0.0785 ± 0.016 | 0.0434 ± 0.012
UCCUGGAUGUGCUUGCAUUGUAUUUAGAAA | 0.0114 ± 0.0047 | 0.000851 ± 0.0069 | 0.00352 ± 0.0044 | 0.0015 ± 0.0059 | 0.0016 ± 0.0025
UCCUGCCACAGCUUGCAUAGUAUUUAGUUA | 0.331 ± 0.025 | 0.0105 ± 0.003 | 1.2 ± 0.051 | 0.0769 ± 0.013 | 0.0631 ± 0.017
UCCUGGAUCAGCUUGCAUAGUAUUUAGCUA | 0.00534 ± 0.0036 | 0.000457 ± 0.013 | 0.0164 ± 0.0052 | 0.00651 ± 0.0022 | 0.00129 ± 0.0046
UCCUGGAUGUCGUUGCAUAGAUAUUUAGUUA | 0.00379 ± 0.0039 | 0.00298 ± 0.0032 | 0.0011 ± 0.0085 | 0.00157 ± 0.0055 | 0.000329 ± 0.011
UCCUGGAUCAGCUUGCAUAGUAUUUAGUUG [g2:g22:cont:t1G] | 0.285 ± 0.018 | 0.00983 ± 0.0019 | 1.05 ± 0.12 | 0.0362 ± 0.0084 | 0.0209 ± 0.0054
UCCUGGAUGUGCUUGCUAAGUAUUUAGAAA | 0.00225 ± 0.0049 | 0.000909 ± 0.0058 | 0.00149 ± 0.0079 | 0.00107 ± 0.0077 | 0.000274 ± 0.017
UCCUGGAUGUCGAAGCAUACUAUUUAGUUA | 0.00193 ± 0.0065 | 0.000913 ± 0.0056 | 0.000959 ± 0.011 | 0.000859 ± 0.0067 | 0.000364 ± 0.0099
UCCUGGAUGUCGUUGCAUACGUAUUUAGUUA | 0.000688 ± 0.015 | 0.00143 ± 0.0053 | 0.000179 ± 0.051 | 0.000736 ± 0.012 | 0.000258 ± 0.02

Quoted from the listing (2 entries):
Sequence | pre-steady-state target cleavage rate [1, 4] | pre-steady-state target cleavage rate [1, 5] | pre-steady-state target cleavage rate [2, 4] | pre-steady-state target cleavage rate [2, 5] | pre-steady-state target cleavage rate [3]
UCCUGGAUCAGCUUGCAUAGUAUUUAGUUG [g2:g22:cont:t1G] | 0.285 ± 0.018 | 0.00983 ± 0.0019 | 1.05 ± 0.12 | 0.0362 ± 0.0084 | 0.0209 ± 0.0054
UCCUGGAUGUGCUUGCUAAGUAUUUAGAAA | 0.00225 ± 0.0049 | 0.000909 ± 0.0058 | 0.00149 ± 0.0079 | 0.00107 ± 0.0077 | 0.000274 ± 0.017
